Data as given in PubChem BioAssay AID1259405 (NCATS, 2018)
Aim: 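Silenced genes that increase secreted GFP made by CHO cells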 (primary screen). Cell system: Chinese hamster CHO-K1 ovary cells with stable secreted eGFP expression. Reagents: single siRNA against mouse genes, 0.8 pmol siRNA per well (2 µl of 400 nM stock). Time to read-out: 3 days. Detection: 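Per-well intracellular GFP measured by laser scanning cytometry, plus viability from ATP luminescence, each relative to plate median of non-targeting control wells, in %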. Scale: GFP, % of control: higher = more GFP per well, higher productivity; viability (ATP), % of control: higher = more viable cells (more ATP). Call rule: 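Called active when intracellular GFP, relative to negative control, is at or above 120%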.
Shown is one part, drawn at random, of about 50,000 reagents. About 4,000 of them (8%) count as active. 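Mouse siRNA library applied to hamster cells; one well for each siRNA.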 Reagents against one gene are numbered here.

gene symbol	siRNA no.	GFP, % of control	viability (ATP), % of control	outcome
Zfp446	1	34.7	31	inactive
Zfp446	2	95.7	87.3	inactive
Dmrt2	1	43.3	40	inactive
Dmrt2	2	66.7	84.5	inactive
Dmrt2	3	68.7	81.7	inactive
Cdk18	1	83.6	87.9	inactive
Cdk18	2	58.7	39	inactive
Cdk18	3	74.7	75.4	inactive
Kdm6b	1	72.3	55.1	inactive
Kdm6b	2	84.1	71.6	inactive
Kdm6b	3	78.6	77.2	inactive
Rtkn	1	173	119	active
Rtkn	2	115	83.4	inactive
Rtkn	3	95.2	67	inactive
E2f8	1	101	117	inactive
E2f8	2	69.4	106	inactive
6330444E15Rik	1	36.1	23.5	inactive
6330444E15Rik	2	61.3	80.7	inactive
6330444E15Rik	3	56.8	59.7	inactive
Gm6787	1	147	118	active
Gm6787	2	57.5	55.7	inactive
Gm6787	3	84.5	102	inactive
Rd3	1	75.3	105	inactive
Rd3	2	102	106	inactive
Rd3	3	87.1	95.9	inactive
Acadsb	1	48.4	58.8	inactive
Acadsb	2	74.8	67.4	inactive
Acadsb	3	107	100	inactive
Or6d14	1	103	70.4	inactive
Or6d14	2	65.3	68.5	inactive
Or6d14	3	29.9	36.8	inactive

Records above whose gene name starts with E or e:
gene symbol	siRNA no.	GFP, % of control	viability (ATP), % of control	outcome
E2f8	1	101	117	inactive
E2f8	2	69.4	106	inactive

The results go on.
gene symbol	siRNA no.	GFP, % of control	viability (ATP), % of control	outcome
Defb5	1	108	75.9	inactive
Defb5	2	94.3	88.6	inactive
Defb5	3	95.4	50.9	inactive
Lman2l	1	69.6	65.1	inactive
Lman2l	2	70.1	44.3	inactive
Lman2l	3	74.3	68.8	inactive
Or51a7	1	126	88.9	active
Or51a7	2	88.3	79.3	inactive
Or51a7	3	81.6	71.6	inactive
Tatdn1	1	41.6	37.2	inactive
Tatdn1	2	116	122	inactive
Tatdn1	3	99.4	43.6	inactive
Mgat3	1	83.6	81.2	inactive
Mgat3	2	95.2	97.7	inactive
Mgat3	3	85.8	86.1	inactive
Or52e3	1	85.4	69.1	inactive
Or52e3	2	31.4	62.3	inactive
Or52e3	3	40.7	75.2	inactive
Timd2	1	89.9	48.3	inactive
Timd2	2	101	101	inactive
Timd2	3	56.3	52.5	inactive
Akt1s1	1	84.2	65.2	inactive
Akt1s1	2	68.1	77.3	inactive
Akt1s1	3	80.6	75.4	inactive
Sohlh1	1	48.1	68.5	inactive
Sohlh1	2	54.8	89.4	inactive
Sohlh1	3	101	67.4	inactive
